Values of other authors in patent US11191719B2, “Controlled absorption water-soluble pharmaceutically active organic compound formulation for once-daily administration” (STI Pharma, LLC, priority 2011, dated 2021).

COc1ccc2cc([C@H](C)C(=O)O)ccc2c1 [naproxen, (S)-6-methoxy-methyl-2-naphthaleneacetic acid]
plasma naproxen concentration required for anti-inflammatory or analgesic effects: 30 to 90 µg/mL
plasma naproxen levels at which pain reduction occurred (patients with rheumatoid arthritis): above 50 μg/mL
plasma naproxen levels reported to reduce post partum pain (post partum pain): 30 to 70 µg/mL
